Experimental data: paper PMC314469, “Protein Interaction Networks by Proteome Peptide Scanning” (PLoS Biology, 2004)
These are yes or no findings as the source states them, for the method shown. Where a sequence is shown, tags or fusion partners need not be part of it.

Target: T1, GST-Abp1 SH3 domain (S. cerevisiae) (UniProt P15891)
T1 sequence: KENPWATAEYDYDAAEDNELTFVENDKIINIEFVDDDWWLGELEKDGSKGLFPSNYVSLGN
Assay: SPR; BIAcoreX; GST-fused SH3 domains (and GST as control) amine-coupled to CM5 chips; peptides flowed at 25°C in 10 mM HEPES, 150 mM NaCl, 3.4 mM EDTA, 0.005% P20, pH 7.4, 15 μl/min, 500 μM to 65 nM; steady-state model; both purified

RRPPPPPIPSTQKP [Ynl094w peptide …]
binding: no binding (tested: 100 μM)
